The values below come from publication doi:10.1101/2021.12.20.472892.

By UniProt entry, the sequences of proteins in these tests, tags left out. Where a name states a change or a piece, a line headed by the entry shows the natural chain unless it says otherwise.
UniProt Q9SL70: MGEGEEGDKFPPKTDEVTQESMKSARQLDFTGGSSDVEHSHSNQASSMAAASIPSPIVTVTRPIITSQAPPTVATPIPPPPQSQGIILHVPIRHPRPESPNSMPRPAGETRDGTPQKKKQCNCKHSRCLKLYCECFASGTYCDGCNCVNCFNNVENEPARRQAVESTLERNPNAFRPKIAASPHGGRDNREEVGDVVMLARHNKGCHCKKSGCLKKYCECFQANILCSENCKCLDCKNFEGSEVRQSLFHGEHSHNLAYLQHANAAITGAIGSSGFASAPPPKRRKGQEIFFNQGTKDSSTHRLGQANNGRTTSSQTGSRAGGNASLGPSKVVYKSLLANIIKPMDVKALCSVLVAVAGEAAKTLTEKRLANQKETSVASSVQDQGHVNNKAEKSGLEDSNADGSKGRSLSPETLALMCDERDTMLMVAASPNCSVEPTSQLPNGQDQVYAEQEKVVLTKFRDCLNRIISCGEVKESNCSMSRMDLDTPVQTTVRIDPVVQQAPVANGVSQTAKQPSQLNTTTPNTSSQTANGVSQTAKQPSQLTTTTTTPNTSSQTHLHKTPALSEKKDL

Results are given in words; binding and its absence hold for the method and conditions named. Binding can be weak; no strength is given.

This assay concerns the target T1, RETINOBLASTOMA-RELATED1 (RBR), wild type (Arabidopsis thaliana) (UniProt Q9LKZ3).
T1 sequence: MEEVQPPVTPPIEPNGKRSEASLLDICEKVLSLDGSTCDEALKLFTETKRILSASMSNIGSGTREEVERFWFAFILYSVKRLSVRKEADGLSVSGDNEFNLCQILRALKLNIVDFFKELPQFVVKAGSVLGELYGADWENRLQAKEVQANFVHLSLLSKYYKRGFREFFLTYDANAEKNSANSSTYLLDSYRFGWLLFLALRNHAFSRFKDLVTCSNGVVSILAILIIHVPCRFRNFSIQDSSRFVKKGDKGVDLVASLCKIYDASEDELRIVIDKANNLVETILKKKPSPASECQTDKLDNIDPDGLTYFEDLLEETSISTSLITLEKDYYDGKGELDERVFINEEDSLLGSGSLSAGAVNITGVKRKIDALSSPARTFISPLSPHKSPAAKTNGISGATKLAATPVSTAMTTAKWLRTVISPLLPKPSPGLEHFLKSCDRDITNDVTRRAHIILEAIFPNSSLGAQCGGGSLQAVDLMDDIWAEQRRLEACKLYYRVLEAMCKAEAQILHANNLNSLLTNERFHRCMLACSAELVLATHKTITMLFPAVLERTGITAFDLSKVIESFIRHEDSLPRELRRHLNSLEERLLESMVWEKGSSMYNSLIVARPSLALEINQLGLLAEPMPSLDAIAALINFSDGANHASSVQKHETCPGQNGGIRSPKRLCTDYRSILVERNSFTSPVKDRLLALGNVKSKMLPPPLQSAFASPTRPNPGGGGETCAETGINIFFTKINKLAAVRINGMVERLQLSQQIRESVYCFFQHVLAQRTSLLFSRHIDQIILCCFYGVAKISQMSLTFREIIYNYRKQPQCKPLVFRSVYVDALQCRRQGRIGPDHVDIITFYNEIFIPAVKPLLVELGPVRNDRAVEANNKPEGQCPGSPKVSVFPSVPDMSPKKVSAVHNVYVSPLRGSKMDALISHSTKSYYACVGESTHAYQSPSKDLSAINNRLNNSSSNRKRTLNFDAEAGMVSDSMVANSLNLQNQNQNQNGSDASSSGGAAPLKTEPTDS
The assay is described as follows: two-hybrid.

In the case of “TCX6^gcg2 (TCX6 mutated on the canonical LXCXE motif '2') (from UniProt Q9SL70)”, the binding result is given as “no binding”.

As to “TCX6^gcg1 (TCX6 mutated on the LXCXE-like motif '1' within the CXC domain) (from UniProt Q9SL70)”, the binding result is given as “binds”.
